“And” between values parts separate entries of the source, which are not always exact repeats. Equal entries are not always repeated. Screen size: about 320,000 compounds; about 22,000 (6.9%) were called active. Inconclusive results, whose numbers are uncertain, are shown with a selection of clear calls. The call rests on the fitted dose curve; in most records, active means well fitted inhibition curve with a large enough effect; inconclusive means small, poorly fitted or top-dose-only effect, or another doubt; inactive means no such curve, though single readings can be large or run the other way. Potencies of inconclusive entries are doubtful fits and often do not repeat.
Test: Primary qHTS for delayed death inhibitors of the malarial parasite plastid, 96 hour incubation
Details: P. falciparum luciferase reporter growth; series mostly up to 28.7 µM; activity change, negative = inhibition: at the top concentration
Procedure, shortened: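 Cell-based qHTS: luciferase-tagged P. falciparum in erythrocytes (2% hematocrit, 0.05% parasitemia final) incubated with compounds for 96 hours, 37 C, 5% CO2; luciferase detection reagent then added and luminescence measured.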
On the % scale 0 is the no-effect control and ±100 the full control effect; potency means the concentration at half of the fitted maximal effect.

Compound	Potency	activity change, negative = inhibition
COc1cccc(NC(=O)CCNS(=O)(=O)c2ccc3c(c2)oc(=O)n3C)c1	active: 7.38 µM	–
Cc1cccc(N2CCN(C(=O)c3ccc4nc(N5CCCCC5)sc4c3)CC2)c1C	inconclusive: 18.5 µM [inhibitor, single point]	–
C[C@H]1O[C@@H](OC2CC[C@]3(C=O)[C@H]4CC[C@]5(C)[C@@H](C6=CC(=O)OC6)CC[C@]5(O)[C@@H]4CC[C@]3(O)C2)CC2OC(C)(C)OC21 (some centres undefined)	inconclusive: 0.208 µM [inhibitor, partial curve, poor fit]	–
COc1nc(NCCO)nc(Nc2ccccc2F)n1	inconclusive: 4.15 µM [inhibitor, single point]	–
COc1ccccc1CNC(=O)c1cccnc1	active: 11.7 µM	–
CN1CCC(OC(c2ccccc2)c2ccccc2)CC1	inconclusive: 1.81 µM [inhibitor, full curve] and inconclusive: 18.5 µM [inhibitor, single point]	–
CC(C)(C)OC(=O)c1ncn2c1[C@@H]1CCCN1C(=O)c1c(Br)cccc1-2	inconclusive: 6.01 µM [inhibitor, partial curve]	–
CCC(C)c1ccc(S(=O)(=O)N2CCN(C(C)CC(=O)O)CC2)cc1 (centres undefined)	–	inactive: 13.2%
CCc1ccc(CN2CCC(n3nccc3NC(=O)c3ccccc3C)CC2)cc1	inconclusive: 11.7 µM [inhibitor, single point]	–
CSc1ccccc1NC(=O)c1ccccn1	–	inactive: 11.1%
CC1CC(NS(=O)(=O)c2cc3c4c(c2)CCN4C(=O)CC3)CC(C)(C)C1 (centres undefined)	inconclusive: 10.4 µM [inhibitor, single point]	–
COc1ccc(CNC(=O)C(C)OC(=O)Cn2cnc3c2c(=O)n(C)c(=O)n3C)cc1 (centres undefined)	–	inactive: 56%
CCn1c(COc2ccc(Cl)cc2)nnc1SCc1nc2ccccc2[nH]1	inconclusive: 11.7 µM [inhibitor, partial curve]	–
CCc1ccc(C(CNc2nc(C(F)(F)F)nc3ccccc23)N(C)C)cc1 (centres undefined)	active: 11.7 µM	–
O=[N+]([O-])c1c(C(Cl)Cl)nn(-c2ccc(Cl)cc2)c1N1CCCCC1	inconclusive: 2.33 µM [inhibitor, full curve]	–
O=C(N/N=C\c1cc(Br)ccc1O)c1ccc(S(=O)(=O)N2CCCCC2)cc1	–	inactive: -10.5%
CC1(CCC(=O)N2CCCC(N3CCN(c4ccc(F)cc4)CC3)C2)CC1 (centres undefined)	inconclusive: 18.5 µM [inhibitor, single point]	–
CC(Sc1nnc(-c2ccco2)n1C)C(=O)N1C(C)CCCC1C (centres undefined)	–	inactive: -2.11%
COc1ccc(C2C(C(C)=O)=C(C)N=c3s/c(=C/c4ccc5c(c4)OCO5)c(=O)n32)cc1 (centres undefined)	inconclusive: 9.28 µM [inhibitor, single point]	–

Reformatted field by field: two of the compounds above.
Cc1cccc(N2CCN(C(=O)c3ccc4nc(N5CCCCC5)sc4c3)CC2)c1C
  Potency: inconclusive: 18.5 µM [inhibitor, single point]
CC1CC(NS(=O)(=O)c2cc3c4c(c2)CCN4C(=O)CC3)CC(C)(C)C1 (centres undefined)
  Potency: inconclusive: 10.4 µM [inhibitor, single point]
